Reference: patent US20160033535A1
No constants are given. Whether binding was seen depends on the method and setting. Binding seen in cells or lysates may run through a third protein. Some binding calls cover weakened binding; strength is not graded here.

Chains of the proteins cited; added tags and fusions are not shown. Residues count along the entry.
UniProt P07910, residues 2-306: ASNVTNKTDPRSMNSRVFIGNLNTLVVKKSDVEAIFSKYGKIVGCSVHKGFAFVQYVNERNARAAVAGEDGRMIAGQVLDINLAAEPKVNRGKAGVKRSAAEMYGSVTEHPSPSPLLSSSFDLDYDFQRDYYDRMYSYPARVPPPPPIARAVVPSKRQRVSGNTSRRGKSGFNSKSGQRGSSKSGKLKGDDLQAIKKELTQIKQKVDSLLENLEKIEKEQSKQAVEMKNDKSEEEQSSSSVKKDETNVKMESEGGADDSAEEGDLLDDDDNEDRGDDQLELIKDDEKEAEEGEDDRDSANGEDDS

Legend:
FGGY protein (human) [1] = target: T1, FGGY protein (human) (UniProt Q96C11); test: reciprocal co-immunoprecipitation from HeLa and HEK293 lysates, Western blot
T1 sequence: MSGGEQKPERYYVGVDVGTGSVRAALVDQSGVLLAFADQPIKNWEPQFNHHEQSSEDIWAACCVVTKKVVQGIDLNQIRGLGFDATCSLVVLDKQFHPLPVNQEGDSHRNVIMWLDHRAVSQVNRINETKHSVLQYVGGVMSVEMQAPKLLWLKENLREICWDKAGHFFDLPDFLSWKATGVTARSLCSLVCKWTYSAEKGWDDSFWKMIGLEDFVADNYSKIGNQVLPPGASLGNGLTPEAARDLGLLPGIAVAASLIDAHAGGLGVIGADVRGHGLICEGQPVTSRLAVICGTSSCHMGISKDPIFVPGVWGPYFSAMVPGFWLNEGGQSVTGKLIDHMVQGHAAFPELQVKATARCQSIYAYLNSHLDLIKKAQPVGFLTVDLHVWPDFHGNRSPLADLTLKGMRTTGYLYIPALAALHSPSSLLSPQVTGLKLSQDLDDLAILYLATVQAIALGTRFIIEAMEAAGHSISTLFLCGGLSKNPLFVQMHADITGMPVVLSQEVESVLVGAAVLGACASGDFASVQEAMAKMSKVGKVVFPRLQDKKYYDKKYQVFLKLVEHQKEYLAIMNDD

FGGY protein (human) [2] = target: T1, FGGY protein (human); test: reciprocal co-immunoprecipitation from cell lysates under stringent conditions, Western blot
FGGY protein (human) [3] = target: T1, FGGY protein (human); test: immunoprecipitation of endogenous FGGY from cell lysates, LC-MS/MS of the precipitate (results not shown)

Measured: binding

heterogenous nuclear ribonucleoprotein C (HnRNP C) (from UniProt P07910 2-306)
binds: all assays above
